From patent publication US11065203B2, “Liposomal compositions and uses of same” (Technion Research & Development Foundation Limited, priority 2009, dated 2021)

Assay: Proteomics analysis (trypsin digest, LC-MS/MS) of hMSC ghosts and derived CDLs, conditioned or unconditioned by PC3 medium
Design: species or system human
Details: LC-MS/MS peak area per protein; for Ratio of expression Cond. CDLs/Cond. Ghosts: CDLs derived from conditioned hMSCs versus conditioned ghosts; for Ratio of expression Cond Ghosts/Ghosts: hMSC ghosts conditioned by PC3 medium versus unconditioned ghosts

B1: Q92841 (protein, UniProt Q92841 1-729, looked up)
chain: MPTGFVAPILCVLLPSPTREAATVASATGDSASERESAAPAAAPTAEAPPPSVVTRPEPQALPSPAIRAPLPDLYPFGTMRGGGFGDRDRDRDRGGFGARGGGGLPPKKFGNPGERLRKKKWDLSELPKFEKNFYVEHPEVARLTPYEVDELRRKKEITVRGGDVCPKPVFAFHHANFPQYVMDVLMDQHFTEPTPIQCQGFPLALSGRDMVGIAQTGSGKTLAYLLPAIVHINHQPYLERGDGPICLVLAPTRELAQQVQQVADDYGKCSRLKSTCIYGGAPKGPQIRDLERGVEICIATPGRLIDFLESGKTNLRRCTYLVLDEADRMLDMGFEPQIRKIVDQIRPDRQTLMWSATWPKEVRQLAEDFLRDYTQINVGNLELSANHNILQIVDVCMESEKDHKLIQLMEEIMAEKENKTIIFVETKRRCDDLTRRMRRDGWPAMCIHGDKSQPERDWVLNEFRSGKAPILIATDVASRGLDVEDVKFVINYDYPNSSEDYVHRIGRTARSTNKGTAYTFFTPGNLKQARELIKVLEEANQAINPKLMQLVDHRGGGGGGGGRSRYRTTSSANNPNLMYQDECDRRLRGVKDGGRRDSASYRDRSETDRAGYANGSGYGSPNSAFGAQAGQYTYGQGTYGAAAYGTSSYTAQEYGAGTYGASSTTSTGRSSQSSSQQFSGIGRSGQQPQPLMSQQFAQPPGATNMIGYMGQTAYQYPPPPPPPPPSRK
modifications: full-length
With B1 as the molecule, how does the “Ratio of expression Cond. CDLs/Cond. Ghosts” value read?
Its value is 2%.

And the “Ratio of expression Cond Ghosts/Ghosts” value?
Its value is 100%.

B2: Q9Y224 (protein, UniProt Q9Y224 1-244, looked up)
chain: MFRRKLTALDYHNPAGFNCKDETEFRNFIVWLEDQKIRHYKIEDRGNLRNIHSSDWPKFFEKYLRDVNCPFKIQDRQEAIDWLLGLAVRLEYGDNAEKYKDLVPDNSKTADNATKNAEPLINLDVNNPDFKAGVMALANLLQIQRHDDYLVMLKAIRILVQERLTQDAVAKANQTKEGLPVALDKHILGFDTGDAVLNEAAQILRLLHIEELRELQTKINEAIVAVQAIIADPKTDHRLGKVGR
modifications: full-length
Which results are given for B2?
Ratio of expression Cond. CDLs/Cond. Ghosts: 2%; Ratio of expression Cond Ghosts/Ghosts: 100%

B3: Q13724 (protein, UniProt Q13724 1-837, looked up)
chain: MARGERRRRAVPAEGVRTAERAARGGPGRRDGRGGGPRSTAGGVALAVVVLSLALGMSGRWVLAWYRARRAVTLHSAPPVLPADSSSPAVAPDLFWGTYRPHVYFGMKTRSPKPLLTGLMWAQQGTTPGTPKLRHTCEQGDGVGPYGWEFHDGLSFGRQHIQDGALRLTTEFVKRPGGQHGGDWSWRVTVEPQDSGTSALPLVSLFFYVVTDGKEVLLPEVGAKGQLKFISGHTSELGDFRFTLLPPTSPGDTAPKYGSYNVFWTSNPGLPLLTEMVKSRLNSWFQHRPPGAPPERYLGLPGSLKWEDRGPSGQGQGQFLIQQVTLKIPISIEFVFESGSAQAGGNQALPRLAGSLLTQALESHAEGFRERFEKTFQLKEKGLSSGEQVLGQAALSGLLGGIGYFYGQGLVLPDIGVEGSEQKVDPALFPPVPLFTAVPSRSFFPRGFLWDEGFHQLVVQRWDPSLTREALGHWLGLLNADGWIGREQILGDEARARVPPEFLVQRAVHANPPTLLLPVAHMLEVGDPDDLAFLRKALPRLHAWFSWLHQSQAGPLPLSYRWRGRDPALPTLLNPKTLPSGLDDYPRASHPSVTERHLDLRCWVALGARVLTRLAEHLGEAEVAAELGPLAASLEAAESLDELHWAPELGVFADFGNHTKAVQLKPRPPQGLVRVVGRPQPQLQYVDALGYVSLFPLLLRLLDPTSSRLGPLLDILADSRHLWSPFGLRSLAASSSFYGQRNSEHDPPYWRGAVWLNVNYLALGALHHYGHLEGPHQARAAKLHGELRANVVGNVWRQYQATGFLWEQYSDRDGRGMGCRPFHGWTSLVLLAMAEDY
modifications: full-length
With B3 as the molecule, how does the “Ratio of expression Cond. CDLs/Cond. Ghosts” value read?
Its value is 1%.

What about the “Ratio of expression Cond Ghosts/Ghosts” value of the same molecule?
The value was 100%.
